# Results taken from the supplement of paper PMC6411743.
# ± gives the standard deviation of the averaged measurements. Only a part is listed here, and it is no random draw.
# Legend:
# Assay in all cases: NP40-soluble protein abundance relative to vehicle (solubility fold change) (ratio); higher = more soluble protein in presence of ATP
# [1] = target: T1, E9PFB9 and related entries (UniProt Q5T9S5)
# T1 sequence (whole entry): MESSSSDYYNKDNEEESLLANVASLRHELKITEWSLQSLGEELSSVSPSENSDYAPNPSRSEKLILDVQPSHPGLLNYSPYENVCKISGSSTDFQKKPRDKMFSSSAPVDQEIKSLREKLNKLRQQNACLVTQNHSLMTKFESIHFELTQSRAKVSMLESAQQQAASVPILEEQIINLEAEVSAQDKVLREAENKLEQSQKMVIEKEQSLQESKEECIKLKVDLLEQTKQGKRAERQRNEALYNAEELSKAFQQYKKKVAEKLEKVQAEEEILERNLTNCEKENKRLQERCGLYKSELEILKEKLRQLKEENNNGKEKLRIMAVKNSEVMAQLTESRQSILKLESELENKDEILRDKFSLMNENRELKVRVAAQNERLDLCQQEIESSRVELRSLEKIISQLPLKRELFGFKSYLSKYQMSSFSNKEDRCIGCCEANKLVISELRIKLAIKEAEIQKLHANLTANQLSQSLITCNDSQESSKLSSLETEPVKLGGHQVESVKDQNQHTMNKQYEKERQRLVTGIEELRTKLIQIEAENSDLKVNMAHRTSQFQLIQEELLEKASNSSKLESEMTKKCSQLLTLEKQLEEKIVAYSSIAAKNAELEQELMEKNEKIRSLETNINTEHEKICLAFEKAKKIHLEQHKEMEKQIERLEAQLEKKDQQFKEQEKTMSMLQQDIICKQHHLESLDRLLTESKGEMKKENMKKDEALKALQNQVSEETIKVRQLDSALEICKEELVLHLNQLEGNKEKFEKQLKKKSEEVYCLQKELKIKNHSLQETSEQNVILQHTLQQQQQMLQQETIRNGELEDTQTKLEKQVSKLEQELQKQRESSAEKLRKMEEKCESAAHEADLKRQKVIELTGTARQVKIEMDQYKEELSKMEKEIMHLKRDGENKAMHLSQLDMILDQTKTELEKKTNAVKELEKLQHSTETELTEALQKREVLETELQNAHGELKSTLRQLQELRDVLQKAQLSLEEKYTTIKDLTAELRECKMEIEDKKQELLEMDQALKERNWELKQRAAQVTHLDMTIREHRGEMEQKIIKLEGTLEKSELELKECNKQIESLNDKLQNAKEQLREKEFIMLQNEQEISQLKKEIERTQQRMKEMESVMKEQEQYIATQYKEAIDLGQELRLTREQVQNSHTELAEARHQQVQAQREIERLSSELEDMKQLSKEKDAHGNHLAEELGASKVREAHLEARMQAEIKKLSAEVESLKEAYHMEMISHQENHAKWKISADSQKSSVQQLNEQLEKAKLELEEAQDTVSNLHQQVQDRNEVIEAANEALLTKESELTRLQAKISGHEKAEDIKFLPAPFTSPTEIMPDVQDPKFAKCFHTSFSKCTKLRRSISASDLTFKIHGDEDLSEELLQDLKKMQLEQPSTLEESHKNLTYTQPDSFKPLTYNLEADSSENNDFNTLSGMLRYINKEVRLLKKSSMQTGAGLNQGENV
# Method in brief: (§1)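 Across three independent experiments, values are fold changes against the detergent-processed vehicle for each replicate, based on vsn-normalised intensities. The samples were Jurkat crude lysate treated with eight concentrations (0.1 to 10 mM) for 10 min at room temperature and then 3 min at 37 °C. Lysate was solubilised with 0.8% NP40 and benzonase, ultracentrifuged, and the supernatant analysed by TMT-labelled LC-MS/MS.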
# [2] = target: T2, E9PK80 and related entries (UniProt Q9NTG7)
# T2 sequence (whole entry): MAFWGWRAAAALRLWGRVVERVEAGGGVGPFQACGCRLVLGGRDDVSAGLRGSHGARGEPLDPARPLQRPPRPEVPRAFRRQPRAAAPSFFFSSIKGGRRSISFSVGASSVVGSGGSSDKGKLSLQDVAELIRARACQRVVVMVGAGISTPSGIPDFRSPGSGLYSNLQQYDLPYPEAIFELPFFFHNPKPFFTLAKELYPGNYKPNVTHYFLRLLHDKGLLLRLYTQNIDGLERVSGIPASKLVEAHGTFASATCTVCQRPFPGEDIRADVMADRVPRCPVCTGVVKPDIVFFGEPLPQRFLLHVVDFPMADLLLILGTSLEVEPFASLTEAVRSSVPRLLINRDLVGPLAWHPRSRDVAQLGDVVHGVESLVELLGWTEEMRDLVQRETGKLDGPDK
# Method in brief: as §1
# [3] = target: T3, E9PNW4 and related entries (UniProt P13987)
# T3 sequence (whole entry): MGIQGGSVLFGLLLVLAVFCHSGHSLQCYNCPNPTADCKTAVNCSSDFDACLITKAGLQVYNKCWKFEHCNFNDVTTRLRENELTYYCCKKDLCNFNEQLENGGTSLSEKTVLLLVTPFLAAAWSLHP
# Method in brief: as §1
# [4] = target: T4, E9PS17 and related entries (UniProt Q96KG9)
# T4 sequence (whole entry): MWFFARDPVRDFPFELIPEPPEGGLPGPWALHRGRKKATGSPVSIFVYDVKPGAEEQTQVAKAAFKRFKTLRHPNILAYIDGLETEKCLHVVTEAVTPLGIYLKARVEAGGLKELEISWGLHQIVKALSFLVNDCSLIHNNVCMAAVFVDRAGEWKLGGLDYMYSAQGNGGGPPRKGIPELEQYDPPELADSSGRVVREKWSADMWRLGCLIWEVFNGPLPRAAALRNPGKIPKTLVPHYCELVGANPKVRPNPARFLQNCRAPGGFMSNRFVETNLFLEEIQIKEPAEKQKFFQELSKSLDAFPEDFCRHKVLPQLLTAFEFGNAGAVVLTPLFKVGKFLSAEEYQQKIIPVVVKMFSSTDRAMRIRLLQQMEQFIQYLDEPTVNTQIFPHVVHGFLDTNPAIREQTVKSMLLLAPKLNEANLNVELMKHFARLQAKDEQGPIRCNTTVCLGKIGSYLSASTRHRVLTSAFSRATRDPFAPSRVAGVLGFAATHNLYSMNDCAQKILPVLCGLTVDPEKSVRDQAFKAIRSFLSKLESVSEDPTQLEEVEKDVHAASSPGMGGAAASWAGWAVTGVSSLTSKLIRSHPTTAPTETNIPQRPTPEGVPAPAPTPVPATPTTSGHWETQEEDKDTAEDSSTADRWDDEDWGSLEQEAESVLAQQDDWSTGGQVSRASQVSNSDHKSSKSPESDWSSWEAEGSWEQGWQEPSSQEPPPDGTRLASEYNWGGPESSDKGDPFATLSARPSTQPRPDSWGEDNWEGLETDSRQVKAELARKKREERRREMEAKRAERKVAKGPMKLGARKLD
# Method in brief: as §1
structure (smiles),measurement,setting,value
Nc1ncnc2c1ncn2[C@@H]1O[C@H](COP(=O)(O)OP(=O)(O)OP(=O)(O)O)[C@@H](O)[C@H]1O [adenosine triphosphate],NP40-soluble protein abundance,[1]; concentration: 6mM,1.03 ± 0.11
same,NP40-soluble protein abundance,[1]; concentration: 8mM,0.919 ± 0.084
same,NP40-soluble protein abundance,[1]; concentration: 10mM,1.01 ± 0.12
same,NP40-soluble protein abundance,[2]; concentration: 1mM,0.94 ± 0.089
same,NP40-soluble protein abundance,[2]; concentration: 2mM,0.958 ± 0.046
same,NP40-soluble protein abundance,[2]; concentration: 4mM,0.944 ± 0.055
same,NP40-soluble protein abundance,[2]; concentration: 6mM,0.965 ± 0.066
same,NP40-soluble protein abundance,[2]; concentration: 8mM,0.861 ± 0.075
same,NP40-soluble protein abundance,[2]; concentration: 10mM,0.927 ± 0.023
same,NP40-soluble protein abundance,[3]; concentration: 1mM,0.968 ± 0.097
same,NP40-soluble protein abundance,[3]; concentration: 2mM,0.881 ± 0.065
same,NP40-soluble protein abundance,[3]; concentration: 4mM,0.93 ± 0.072
same,NP40-soluble protein abundance,[3]; concentration: 6mM,0.978 ± 0.11
same,NP40-soluble protein abundance,[3]; concentration: 8mM,0.928 ± 0.061
same,NP40-soluble protein abundance,[3]; concentration: 10mM,0.845 ± 0.13
same,NP40-soluble protein abundance,[4]; concentration: 1mM,0.978 ± 0.047
same,NP40-soluble protein abundance,[4]; concentration: 2mM,0.979 ± 0.041
same,NP40-soluble protein abundance,[4]; concentration: 4mM,0.983 ± 0.016
same,NP40-soluble protein abundance,[4]; concentration: 6mM,0.928 ± 0.053

# Given with bars between the fields: part of the list above.
structure (smiles) | measurement | setting | value
Nc1ncnc2c1ncn2[C@@H]1O[C@H](COP(=O)(O)OP(=O)(O)OP(=O)(O)O)[C@@H](O)[C@H]1O [adenosine triphosphate] | NP40-soluble protein abundance | [2]; concentration: 6mM | 0.965 ± 0.066
same | NP40-soluble protein abundance | [2]; concentration: 8mM | 0.861 ± 0.075
